{"source": "paper PMC11923636", "about": "“Synthesis, Pharmacological Evaluation, and Molecular Modeling of Phthalimide Derivatives as Monoamine Oxidase and Cholinesterase Dual Inhibitors” (ACS Omega, 2025)", "description": "A fundamental requirement for the effectiveness of anti-AD drugs is their capability to traverse the BBB (blood–brain barrier). […]\nBriefly, synthesized compounds were first dissolved in DMSO (10 mM) that was further diluted by the addition of phosphate buffer ([…]) having a pH of 7.4. PBL dissolved in dodecane was used for coating the membranes of the donor plates. Then, the test compound (0.2 mL) was added to the plate, followed by PBS (0.2 mL; pH = 7.4) to the acceptor plate, which was further placed under the donor plate in order to form a “sandwich”. […] A UV plate reader was employed for the measurements of the drug concentration in donor, acceptor, and reference wells. The permeability (Pe) of the compounds was measured by using the following formula. [drawing 2]", "note": "Where two headings read alike, the source gives them in different places."}
{"smiles": "CC(C)NCC(O)COc1ccc(CC(N)=O)cc1", "note": "(centres unmarked) [atenolol]", "values": [{"measurement": "prediction of CNS penetration", "setting": "class from PAMPA-BBB Pe", "value": "CNS– ^c (“CNS–” (prediction of low BBB permeation); Pe (10^–6 cm/s) < 1)"}]}
{"smiles": "CN1C(=O)CN=C(c2ccccc2)c2cc(Cl)ccc21", "note": "[diazepam]", "values": [{"measurement": "prediction of CNS penetration", "setting": "PAMPA", "value": "CNS+ (key: “CNS+” (prediction of high BBB permeation); Pe (10^–6 cm/s) > 4.39; “CNS–” (prediction of low BBB permeation); Pe (10^–6 cm/s) < 1)"}]}
